Reference: PubChem BioAssay AID330 (DTP/NCI, 2004)
The list is a part of this screen's results and no random one: it gathers tests that were run many times, whatever their T/C, doses with no T/C, and many T/C values between a quarter and a half above the control. Other doses and runs of a compound stand elsewhere. T/C gives the treated animals as a percentage of the vehicle group. Some entries give survivors of the animals treated and no T/C: the source holds a T/C of zero for them, seemingly a mark for toxic or unscored doses. Some doses without a T/C left all or most animals alive at the check, yet need not have been tolerated: survival well below the control is almost never listed, so the zero probably covers shortened survival too. Survivors were counted at the toxicity check, usually on the fifth day, unless a day is given; later deaths do not show. Schedules are NCI's codes, taken here to give the interval after Q, in days (D) or hours (H), and the number of doses after X. Some entries hold several experiments; the results are listed from low to high. For survival time, this PubChem deposit counts one and a half times the control or more as active, and values a quarter to a half above the control carry no call in these data; other NCI protocols may use other cut-offs. Some T/C values carry the count of animals alive at the toxicity check (mostly the fifth day); where none is given, no animal had died by that day.

Tested on: P388 leukemia ip, CD2F1 mice, survival T/C
Assay: NCI In Vivo Anticancer Drug Screen. Data for tumor model P388 Leukemia (intraperitoneal) in CD2F1 (CDF1) mice
Settings: T/C endpoint: median survival time, higher T/C = longer survival
[1] = dose: 200.0 mg/kg/injection, schedule: Q01DX009 (ip), vehicle: saline with Tween-80
[2] = dose: 25.0 mg/kg/injection, schedule: Q01DX001 (ip), vehicle: saline
[3] = dose: 50.0 mg/kg/injection, schedule: Q01DX001 (ip), vehicle: saline
[4] = dose: 400.0 mg/kg/injection, schedule: Q04DX002 (ip), vehicle: saline with Tween-80
[5] = dose: 200.0 mg/kg/injection, schedule: Q01DX005 (ip), vehicle: saline with Tween-80

c1ccc(-c2cc3cc4ccccc4cn3c2)cc1
T/C [1]: 133 % of control [4 of 5 alive]
survivor count (dose: 400.0 mg/kg/injection, schedule: Q01DX009 (ip), vehicle: saline with Tween-80): 4 of 5
survivor count (dose: 600.0 mg/kg/injection, schedule: Q01DX009 (ip), vehicle: saline with Tween-80): 2 of 5

Nc1c(Cl)c(Cl)nc(C(=O)O)c1Cl
survivor count (dose: 400.0 mg/kg/injection, schedule: Q01DX009 (ip), vehicle: Klucel (hydroxypropylcellulose) (HPC)): 2 of 6

COCC1(CCC(C)=C(C)C)Nc2ccc(C(=O)O)cc2CC1Cl (stereo not drawn)
survivor count (dose: 5.0 mg/kg/injection, schedule: Q01DX005 (ip), vehicle: Klucel (hydroxypropylcellulose) (HPC)): 6 of 6
survivor count (dose: 10.0 mg/kg/injection, schedule: Q01DX005 (ip), vehicle: Klucel (hydroxypropylcellulose) (HPC)): 3 of 6

Cc1c2c(cc3c4ccccc4n(C)c13)C(=O)OC2=O
survivor count (dose: 3.12 mg/kg/injection, schedule: Q01DX005 (ip), vehicle: Klucel (hydroxypropylcellulose) (HPC)): 6 of 6
survivor count (dose: 12.5 mg/kg/injection, schedule: Q01DX005 (ip), vehicle: Klucel (hydroxypropylcellulose) (HPC)): 5 of 5 and 6 of 6
survivor count (dose: 25.0 mg/kg/injection, schedule: Q01DX005 (ip), vehicle: Klucel (hydroxypropylcellulose) (HPC)): 5 of 5
survivor count (dose: 50.0 mg/kg/injection, schedule: Q01DX005 (ip), vehicle: Klucel (hydroxypropylcellulose) (HPC)): 5 of 5

N/C(=N\N=C\c1cccnc1)SCCCCBr
survivor count (dose: 1.56 mg/kg/injection, schedule: Q01DX009 (ip), vehicle: saline): 5 of 6
T/C (dose: 3.12 mg/kg/injection, schedule: Q01DX001 (ip), vehicle: saline): 148 % of control
survivor count (dose: 3.12 mg/kg/injection, schedule: Q01DX009 (ip), vehicle: saline): 0 of 6
survivor count (dose: 6.25 mg/kg/injection, schedule: Q01DX001 (ip), vehicle: saline): 0 of 6 and 2 of 6
survivor count (dose: 6.25 mg/kg/injection, schedule: Q01DX009 (ip), vehicle: saline): 0 of 6
survivor count (dose: 12.5 mg/kg/injection, schedule: Q01DX001 (ip), vehicle: saline): 0 of 6
survivor count [2]: 0 of 6
survivor count [3]: 0 of 6
survivor count (dose: 100.0 mg/kg/injection, schedule: Q01DX001 (ip), vehicle: saline): 0 of 6
survivor count (dose: 200.0 mg/kg/injection, schedule: Q01DX001 (ip), vehicle: saline): 0 of 6

CSc1nc2ccc(NC(=O)/C=N/O)cc2s1
survivor count (dose: 50.0 mg/kg/injection, schedule: Q01DX009 (ip), vehicle: Klucel (hydroxypropylcellulose) (HPC)): 6 of 6
survivor count (dose: 100.0 mg/kg/injection, schedule: Q01DX009 (ip), vehicle: Klucel (hydroxypropylcellulose) (HPC)): 3 of 6

COC(=O)c1cc(NC(=O)O/N=C/c2cccnc2)cc(C(=O)OC)c1
survivor count (dose: 200.0 mg/kg/injection, schedule: Q01DX009 (ip), vehicle: saline): 6 of 6

Cc1cc(N(CCOS(C)(=O)=O)CCOS(C)(=O)=O)ccc1C=Nc1ccc(-c2csc(-c3ccc(Br)cc3)n2)cc1
T/C (dose: 50.0 mg/kg/injection, schedule: Q01DX009 (ip), vehicle: saline with Tween-80): 144 % of control [5 of 6 alive]
survivor count [1]: 6 of 6

c1ccc(C(NC2=NCCCCCC2)c2ccco2)cc1 (stereo not drawn)
survivor count (dose: 60.0 mg/kg/injection, schedule: Q01DX005 (ip), vehicle: saline with Tween-80): 0 of 6
survivor count (dose: 120.0 mg/kg/injection, schedule: Q01DX005 (ip), vehicle: saline with Tween-80): 0 of 6
survivor count (dose: 240.0 mg/kg/injection, schedule: Q01DX005 (ip), vehicle: saline with Tween-80): 0 of 6

COC1(c2ccccc2)N=C(N)NC1(OC)c1ccccc1 (stereo not drawn)
survivor count (dose: 50.0 mg/kg/injection, schedule: Q04DX002 (ip), vehicle: saline): 3 of 6
survivor count (dose: 100.0 mg/kg/injection, schedule: Q04DX002 (ip), vehicle: saline): 0 of 6
survivor count (dose: 200.0 mg/kg/injection, schedule: Q04DX002 (ip), vehicle: saline): 0 of 6

Cc1nc(N)nc(N)c1CCCc1ccccc1
survivor count [2]: 0 of 6
survivor count [3]: 0 of 6

CN(C)C(=O)Oc1ccc(OC(=O)N(C)C)c2ccccc12
survivor count (dose: 50.0 mg/kg/injection, schedule: Q01DX001 (ip), vehicle: Klucel (hydroxypropylcellulose) (HPC)): 2 of 6
survivor count (dose: 100.0 mg/kg/injection, schedule: Q01DX001 (ip), vehicle: Klucel (hydroxypropylcellulose) (HPC)): 0 of 6 and 1 of 6
survivor count (dose: 200.0 mg/kg/injection, schedule: Q01DX001 (ip), vehicle: Klucel (hydroxypropylcellulose) (HPC)): 0 of 6
survivor count (dose: 400.0 mg/kg/injection, schedule: Q01DX001 (ip), vehicle: Klucel (hydroxypropylcellulose) (HPC)): 0 of 6

COc1ccc2nccc(C(=O)CCC3CCN(C(=O)c4ccc([N+](=O)[O-])cc4)CC3C(Br)CBr)c2c1 (stereo not drawn)
survivor count [4]: 0 of 6

COc1ccc(C)cc1NC(=O)Sc1ccc(Cl)cc1
T/C (dose: 100.0 mg/kg/injection, schedule: Q01DX005 (ip), vehicle: saline with Tween-80): 127 % of control
survivor count (dose: 200.0 mg/kg/injection, schedule: Q01DX005 (ip), vehicle: saline + Tween-80 + alcohol): 4 of 6
survivor count [5]: 6 of 6

CCOC(=O)CCc1nc(C)ncc1C(=O)OCC
survivor count (dose: 100.0 mg/kg/injection, schedule: Q01DX009 (ip), vehicle: saline): 6 of 6

CN(C)c1ccc(N2C(N)=NC(N)=NC2(C)C)cc1
survivor count (dose: 120.0 mg/kg/injection, schedule: Q01DX005 (ip), vehicle: saline): 0 of 6
survivor count (dose: 240.0 mg/kg/injection, schedule: Q01DX005 (ip), vehicle: saline): 0 of 6

N#CCC(=O)N/N=C(\CC1(O)C(=O)Nc2c(Cl)cc(Cl)cc21)c1cccc2ccccc12 (stereo not drawn)
survivor count (dose: 50.0 mg/kg/injection, schedule: Q01DX005 (ip), vehicle: saline with Tween-80): 6 of 6
survivor count [5]: 5 of 6

OCc1c(CO)c(-c2ccc(Cl)cc2)n2c1CCC2
T/C (dose: 50.0 mg/kg/injection, schedule: Q01DX005 (ip), vehicle: distilled water + Tween-80): 131 % of control
T/C (dose: 100.0 mg/kg/injection, schedule: Q01DX005 (ip), vehicle: distilled water + Tween-80): 136 % of control
T/C (dose: 200.0 mg/kg/injection, schedule: Q01DX005 (ip), vehicle: distilled water + Tween-80): 145 % of control

C=CC(COC(=O)C(C)(C)OC(C)=O)c1ccc(OC(=O)C(C)C)c(OC)c1 (stereo not drawn)
survivor count (dose: 25.0 mg/kg/injection, schedule: Q01DX009 (ip), vehicle: Klucel (hydroxypropylcellulose) (HPC)): 6 of 6

O=C(O)CCNCCC(=O)O
T/C (dose: 200.0 mg/kg/injection, schedule: Q04DX003 (ip), vehicle: saline): 129 % of control
T/C (dose: 400.0 mg/kg/injection, schedule: Q04DX003 (ip), vehicle: saline): 125 % of control

COc1nc(N(C)C)c2cnn(C3CCCCO3)c2n1 (stereo not drawn)
survivor count (dose: 50.0 mg/kg/injection, schedule: Q04DX002 (ip), vehicle: saline with Tween-80): 5 of 6
survivor count (dose: 100.0 mg/kg/injection, schedule: Q04DX002 (ip), vehicle: saline with Tween-80): 1 of 6
survivor count (dose: 200.0 mg/kg/injection, schedule: Q04DX002 (ip), vehicle: saline with Tween-80): 1 of 6
survivor count [4]: 3 of 6

Nc1nc(Nc2ccc(C3=NCCN3)cc2)nc(Nc2ccc(C3=NCCN3)cc2)n1
T/C (dose: 12.5 mg/kg/injection, schedule: Q01DX009 (ip), vehicle: saline): 125 % of control
T/C (dose: 12.5 mg/kg/injection, schedule: Q01DX009 (ip), vehicle: suspension in saline): 125 % of control
T/C (dose: 25.0 mg/kg/injection, schedule: Q01DX009 (ip), vehicle: saline): 126 % of control
T/C (dose: 25.0 mg/kg/injection, schedule: Q01DX009 (ip), vehicle: suspension in saline): 133 % of control [5 of 6 alive]
survivor count (dose: 50.0 mg/kg/injection, schedule: Q01DX009 (ip), vehicle: saline): 4 of 6
T/C (dose: 50.0 mg/kg/injection, schedule: Q01DX009 (ip), vehicle: suspension in saline): 144 % of control

CC(C)(C)N=C(CCNC1CCCCC1)Nc1c(Cl)cccc1Cl
survivor count [1]: 3 of 6
